In US6958321B2, “Isolation, characterization, cloning and use of a mushroom lectin” (The Regents of the University of Michigan, priority 2001, dated 2005):
These are yes or no findings as the source states them, for the method shown. Some entries that bind do so weakly or less than the wild type.

Amino acid sequences for entries named in this document (tags omitted). A change or cut given only in a name is not applied to a line headed by its entry.
UniProt P19137: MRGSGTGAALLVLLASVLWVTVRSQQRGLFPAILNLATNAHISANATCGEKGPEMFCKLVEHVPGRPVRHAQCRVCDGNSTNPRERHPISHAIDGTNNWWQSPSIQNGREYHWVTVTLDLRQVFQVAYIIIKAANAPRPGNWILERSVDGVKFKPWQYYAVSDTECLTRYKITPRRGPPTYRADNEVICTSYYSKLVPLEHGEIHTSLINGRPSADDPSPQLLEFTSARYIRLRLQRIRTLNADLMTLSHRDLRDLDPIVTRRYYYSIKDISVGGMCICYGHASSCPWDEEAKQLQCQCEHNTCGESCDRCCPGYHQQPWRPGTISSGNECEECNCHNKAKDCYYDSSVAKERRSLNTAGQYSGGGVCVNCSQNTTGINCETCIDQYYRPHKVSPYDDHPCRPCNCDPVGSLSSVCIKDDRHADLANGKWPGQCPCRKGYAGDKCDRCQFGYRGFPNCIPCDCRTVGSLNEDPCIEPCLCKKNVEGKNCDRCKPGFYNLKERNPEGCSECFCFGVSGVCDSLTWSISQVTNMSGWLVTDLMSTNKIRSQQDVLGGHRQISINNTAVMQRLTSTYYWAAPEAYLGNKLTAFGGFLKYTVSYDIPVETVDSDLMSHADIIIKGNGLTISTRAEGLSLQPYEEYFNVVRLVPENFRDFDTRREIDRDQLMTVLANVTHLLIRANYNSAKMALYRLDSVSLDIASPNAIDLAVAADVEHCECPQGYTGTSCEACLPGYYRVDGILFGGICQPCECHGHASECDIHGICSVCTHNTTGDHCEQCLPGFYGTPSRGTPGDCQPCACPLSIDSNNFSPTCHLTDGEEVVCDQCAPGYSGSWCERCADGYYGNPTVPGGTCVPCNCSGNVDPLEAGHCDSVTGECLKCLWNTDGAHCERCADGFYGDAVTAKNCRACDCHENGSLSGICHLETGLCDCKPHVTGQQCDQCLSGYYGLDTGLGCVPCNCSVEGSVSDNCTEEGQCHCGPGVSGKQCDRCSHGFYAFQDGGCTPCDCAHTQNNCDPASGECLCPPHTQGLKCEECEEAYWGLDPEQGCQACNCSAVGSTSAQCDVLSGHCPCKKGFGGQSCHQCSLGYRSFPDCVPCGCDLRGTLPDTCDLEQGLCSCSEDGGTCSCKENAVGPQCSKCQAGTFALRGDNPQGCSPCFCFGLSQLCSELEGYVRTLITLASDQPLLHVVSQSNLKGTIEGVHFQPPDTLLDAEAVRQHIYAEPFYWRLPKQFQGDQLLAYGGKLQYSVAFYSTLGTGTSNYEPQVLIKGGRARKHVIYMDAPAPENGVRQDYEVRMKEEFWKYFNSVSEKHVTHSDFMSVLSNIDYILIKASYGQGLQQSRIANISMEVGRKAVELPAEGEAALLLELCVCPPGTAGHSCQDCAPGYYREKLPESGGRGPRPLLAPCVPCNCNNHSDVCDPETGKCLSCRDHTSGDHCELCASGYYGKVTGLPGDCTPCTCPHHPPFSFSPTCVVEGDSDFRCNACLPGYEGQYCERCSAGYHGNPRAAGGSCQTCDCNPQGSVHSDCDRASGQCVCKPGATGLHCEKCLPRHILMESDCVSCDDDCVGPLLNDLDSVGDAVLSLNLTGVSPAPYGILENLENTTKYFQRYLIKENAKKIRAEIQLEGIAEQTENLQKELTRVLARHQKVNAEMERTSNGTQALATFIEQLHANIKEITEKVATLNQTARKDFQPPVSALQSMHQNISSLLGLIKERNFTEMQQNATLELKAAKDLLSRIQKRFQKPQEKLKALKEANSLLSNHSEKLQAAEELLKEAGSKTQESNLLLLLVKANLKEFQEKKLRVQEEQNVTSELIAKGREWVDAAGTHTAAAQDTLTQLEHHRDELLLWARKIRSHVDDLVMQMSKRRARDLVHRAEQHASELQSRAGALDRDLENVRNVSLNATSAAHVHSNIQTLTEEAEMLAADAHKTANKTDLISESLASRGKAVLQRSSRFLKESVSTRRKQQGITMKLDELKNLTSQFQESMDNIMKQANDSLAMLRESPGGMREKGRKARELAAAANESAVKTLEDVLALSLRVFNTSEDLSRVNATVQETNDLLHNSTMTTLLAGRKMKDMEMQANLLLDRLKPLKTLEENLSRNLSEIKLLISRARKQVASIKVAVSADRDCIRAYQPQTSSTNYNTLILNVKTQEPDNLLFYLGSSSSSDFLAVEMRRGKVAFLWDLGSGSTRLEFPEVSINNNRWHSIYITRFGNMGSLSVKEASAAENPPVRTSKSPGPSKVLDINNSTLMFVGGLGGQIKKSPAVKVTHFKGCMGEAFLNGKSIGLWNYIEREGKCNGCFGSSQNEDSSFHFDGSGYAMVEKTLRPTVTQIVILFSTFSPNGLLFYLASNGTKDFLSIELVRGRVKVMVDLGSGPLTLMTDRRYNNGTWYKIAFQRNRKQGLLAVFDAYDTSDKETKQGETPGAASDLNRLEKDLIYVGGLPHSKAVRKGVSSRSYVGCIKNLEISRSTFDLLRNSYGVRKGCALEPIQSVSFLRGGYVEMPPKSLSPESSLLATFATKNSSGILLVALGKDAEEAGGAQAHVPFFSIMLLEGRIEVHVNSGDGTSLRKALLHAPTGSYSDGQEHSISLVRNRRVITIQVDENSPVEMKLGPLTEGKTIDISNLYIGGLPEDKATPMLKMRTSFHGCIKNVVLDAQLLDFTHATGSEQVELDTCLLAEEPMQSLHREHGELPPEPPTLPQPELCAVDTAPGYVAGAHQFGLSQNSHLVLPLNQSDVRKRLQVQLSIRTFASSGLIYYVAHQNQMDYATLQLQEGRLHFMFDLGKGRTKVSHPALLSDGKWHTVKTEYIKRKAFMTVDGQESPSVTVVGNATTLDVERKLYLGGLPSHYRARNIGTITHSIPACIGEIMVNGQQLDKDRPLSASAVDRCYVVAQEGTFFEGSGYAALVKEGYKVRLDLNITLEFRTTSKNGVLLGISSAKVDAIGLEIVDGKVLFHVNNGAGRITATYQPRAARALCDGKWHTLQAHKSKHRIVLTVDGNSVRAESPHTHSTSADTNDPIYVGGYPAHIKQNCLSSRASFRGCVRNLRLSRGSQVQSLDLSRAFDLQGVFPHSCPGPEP

What was measured:
[1] = biological target: Laminin purified from the EHS sarcoma (UniProt P19137); test: affinity chromatography on MOA-Sepharose 4B
[2] = biological target: Laminin purified from the EHS sarcoma (UniProt P19137); test: affinity chromatography on MOA-Sepharose 4B, PBS wash then elution with 20 mM 1,3-diaminopropane in 0.15 M NaCl, A280 of 1 ml fractions

binding [1]: binds
binding [2]: binds
B1: Intact native Marasmius oreades agglutinin (MOA) prepared by the method of Example 2 (other)
chain: MSLRRGIYHIENAGVPSAIDLKDGSSSDGTPIVGWQFTPDTINWHQLWLAEPIPNVADTFTLCNLFSGTYMDLYNGSSEAGTAVNGWQGTAFTTNPHQLWTIKKSSDGTSYKIQNYGSKTFVDLVNGDSSDGAKIAGWTGTWDEGNPHQKWYFNRMSVSSAEAQAAIARNPHIHGTYRGYILDGEYLVLPNATFTQIWKDSGLPGSKWREQIYDCDDFAIAMKAAVGKWGADSWKANGFAIFCGVMLGVNKAGDAAHAYNFTLTKDHADIVFFEPQNGGYLNDIGYDSYMAFY
modifications: blocked N-terminus (possibly N-acetyl)
notes: also called native MOA; immobilized MOA
